Reference: article PMC5223110
These are yes or no findings as the source states them, for the method shown. For some assays here: Binding seen in cells or lysates may run through a third protein. Some results given as binding are weak or reduced against the parent protein; the word gives no strength. Tags and fused reporters may be left off the sequences shown.

Sequences of proteins named here, by UniProt entry; tags and fusion partners are left off.
UniProt Q96GD4: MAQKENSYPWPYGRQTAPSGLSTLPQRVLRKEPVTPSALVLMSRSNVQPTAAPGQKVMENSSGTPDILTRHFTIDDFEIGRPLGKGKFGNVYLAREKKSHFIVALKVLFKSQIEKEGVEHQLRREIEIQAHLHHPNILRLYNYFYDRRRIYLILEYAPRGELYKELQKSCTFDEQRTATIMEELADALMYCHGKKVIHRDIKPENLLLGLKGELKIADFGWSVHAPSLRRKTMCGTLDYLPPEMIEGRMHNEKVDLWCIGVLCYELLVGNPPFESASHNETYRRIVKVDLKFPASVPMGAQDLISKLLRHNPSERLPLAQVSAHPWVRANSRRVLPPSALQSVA
UniProt P53350: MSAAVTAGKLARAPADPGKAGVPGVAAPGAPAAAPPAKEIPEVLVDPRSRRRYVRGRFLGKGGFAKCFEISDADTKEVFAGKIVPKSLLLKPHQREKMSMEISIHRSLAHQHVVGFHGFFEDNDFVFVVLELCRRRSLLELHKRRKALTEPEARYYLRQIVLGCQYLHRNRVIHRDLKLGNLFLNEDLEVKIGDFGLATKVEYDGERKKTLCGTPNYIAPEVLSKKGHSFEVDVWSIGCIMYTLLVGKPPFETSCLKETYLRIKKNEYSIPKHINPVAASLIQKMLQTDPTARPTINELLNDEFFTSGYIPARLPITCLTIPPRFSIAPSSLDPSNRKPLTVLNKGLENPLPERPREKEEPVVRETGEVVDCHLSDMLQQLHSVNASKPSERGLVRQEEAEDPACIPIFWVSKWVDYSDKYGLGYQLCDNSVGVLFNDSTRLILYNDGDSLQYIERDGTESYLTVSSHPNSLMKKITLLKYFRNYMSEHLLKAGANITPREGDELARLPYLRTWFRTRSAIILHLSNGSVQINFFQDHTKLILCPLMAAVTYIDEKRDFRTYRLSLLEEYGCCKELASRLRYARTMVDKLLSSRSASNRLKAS
UniProt Q9NQS7: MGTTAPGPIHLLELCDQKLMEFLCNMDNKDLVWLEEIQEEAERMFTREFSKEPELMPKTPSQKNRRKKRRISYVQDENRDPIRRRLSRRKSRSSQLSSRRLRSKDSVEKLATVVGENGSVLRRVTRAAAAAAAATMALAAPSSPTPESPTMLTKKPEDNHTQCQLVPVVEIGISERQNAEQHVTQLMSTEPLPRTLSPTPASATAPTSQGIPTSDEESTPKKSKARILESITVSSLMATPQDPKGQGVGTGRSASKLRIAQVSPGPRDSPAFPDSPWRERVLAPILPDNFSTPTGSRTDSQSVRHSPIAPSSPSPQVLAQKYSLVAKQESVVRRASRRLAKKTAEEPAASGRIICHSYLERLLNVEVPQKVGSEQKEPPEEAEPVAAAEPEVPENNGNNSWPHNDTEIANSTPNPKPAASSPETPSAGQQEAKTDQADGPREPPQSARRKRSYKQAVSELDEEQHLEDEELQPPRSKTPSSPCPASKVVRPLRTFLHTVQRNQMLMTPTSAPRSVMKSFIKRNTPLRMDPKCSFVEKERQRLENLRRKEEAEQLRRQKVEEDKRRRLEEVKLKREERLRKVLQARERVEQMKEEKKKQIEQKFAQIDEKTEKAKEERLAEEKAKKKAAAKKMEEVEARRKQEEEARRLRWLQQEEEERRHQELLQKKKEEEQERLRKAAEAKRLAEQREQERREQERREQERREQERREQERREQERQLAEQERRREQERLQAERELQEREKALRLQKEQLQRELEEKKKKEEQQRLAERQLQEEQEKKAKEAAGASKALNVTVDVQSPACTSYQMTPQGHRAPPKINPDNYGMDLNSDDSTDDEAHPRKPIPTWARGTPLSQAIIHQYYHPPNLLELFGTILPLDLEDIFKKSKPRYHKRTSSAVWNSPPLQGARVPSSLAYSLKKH

T1: Glutathione S-transferase (GST)-fused Aurora-A (UniProt O14965)
T1 sequence: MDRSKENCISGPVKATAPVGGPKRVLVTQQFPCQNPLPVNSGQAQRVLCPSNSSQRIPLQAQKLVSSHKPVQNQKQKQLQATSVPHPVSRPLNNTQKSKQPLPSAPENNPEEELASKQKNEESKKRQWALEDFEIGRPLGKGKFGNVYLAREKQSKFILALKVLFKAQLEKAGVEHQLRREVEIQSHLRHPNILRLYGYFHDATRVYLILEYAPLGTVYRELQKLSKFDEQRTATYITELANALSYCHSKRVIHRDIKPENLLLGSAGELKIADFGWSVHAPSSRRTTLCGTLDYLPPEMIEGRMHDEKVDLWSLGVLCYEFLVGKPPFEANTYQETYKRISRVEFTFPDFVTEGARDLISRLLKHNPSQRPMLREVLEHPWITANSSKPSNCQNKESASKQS

T2: Flag-tagged Aurora-A (UniProt O14965)
T2 sequence: T1 sequence

B1: Maltose-binding protein (MBP)-fused Haspin (enzyme, UniProt Q8TF76 1-798)
chain: MAASLPGPGSRLFRTYGAADGRRQRRPGREAAQWFPPQDRRRFFNSSGSSDASIGDPSQSDDPDDPDDPDFPGSPVRRRRRRPGGRVPKDRPSLTVTPKRWKLRARPSLTVTPRRLGLRARPPQKCSTPCGPLRLPPFPSRDSGRLSPDLSVCGQPRDGDELGISASLFSSLASPCPGSPTPRDSVISIGTSACLVAASAVPSGLHLPEVSLDRASLPCSQEEATGGAKDTRMVHQTRASLRSVLFGLMNSGTPEDSEFRADGKNMRESCCKRKLVVGNGPEGPGLSSTGKRRATGQDSCQERGLQEAVRREHQEASVPKGRIVPRGIDRLERTRSSRKSKHQEATETSLLHSHRFKKGQKLGKDSFPTQDLTPLQNVCFWTKTRASFSFHKKKIVTDVSEVCSIYTTATSLSGSLLSECSNRPVMNRTSGAPSSWHSSSMYLLSPLNTLSISNKKASDAEKVYGECSQKGPVPFSHCLPTEKLQRCEKIGEGVFGEVFQTIADHTPVAIKIIAIEGPDLVNGSHQKTFEEILPEIIISKELSLLSGEVCNRTEGFIGLNSVHCVQGSYPPLLLKAWDHYNSTKGSANDRPDFFKDDQLFIVLEFEFGGIDLEQMRTKLSSLATAKSILHQLTASLAVAEASLRFEHRDLHWGNVLLKKTSLKKLHYTLNGKSSTIPSCGLQVSIIDYTLSRLERDGIVVFCDVSMDEDLFTGDGDYQFDIYRLMKKENNNRWGEYHPYSNVLWLHYLTDKMLKQMTFKTKCNTPAMKQIKRKIQEFHRTMLNFSSATDLLCQHSLFK
B2: Green fluorescent protein (GFP)-fused Haspin (enzyme, UniProt Q8TF76 1-798)
chain: B1 chain
B3: Haspin-N-EGFP (domain or fragment, UniProt Q8TF76 1-350)
chain: MAASLPGPGSRLFRTYGAADGRRQRRPGREAAQWFPPQDRRRFFNSSGSSDASIGDPSQSDDPDDPDDPDFPGSPVRRRRRRPGGRVPKDRPSLTVTPKRWKLRARPSLTVTPRRLGLRARPPQKCSTPCGPLRLPPFPSRDSGRLSPDLSVCGQPRDGDELGISASLFSSLASPCPGSPTPRDSVISIGTSACLVAASAVPSGLHLPEVSLDRASLPCSQEEATGGAKDTRMVHQTRASLRSVLFGLMNSGTPEDSEFRADGKNMRESCCKRKLVVGNGPEGPGLSSTGKRRATGQDSCQERGLQEAVRREHQEASVPKGRIVPRGIDRLERTRSSRKSKHQEATETSL

How the values were obtained:
Flag-tagged Aurora-B = Flag-tagged Aurora-B (UniProt Q96GD4); experiment: co-IP; Flag-Aurora-B co-expressed with GFP-tagged partner; 0.5 μM nocodazole with DMSO or Aurora-A inhibitor (MLN8237) for 2 h before harvest; co-IP with FLAG beads
[1] = target: T1, Glutathione S-transferase (GST)-fused Aurora-A; experiment: pull-down; GST pull-down: GST-Aurora-A held on resin, purified MBP-Haspin incubated 2 h at 4 °C, eluted with 10 mM GSH in 50 mM Tris pH 8.0; MBP-Haspin detected with a Haspin antibody; both purified
Flag-tagged Aurora-A = target: T2, Flag-tagged Aurora-A; experiment: co-IP; HEK293T cells co-transfected with Flag-tagged and GFP-tagged protein; co-IP buffer 50 mM Tris HCl pH 7.4, 250 mM NaCl, 1 mM EDTA, 50 mM NaF, 0.5% Triton X-100; anti-Flag M2 resin; GFP antibody blot

Molecule | binding (Flag-tagged Aurora-B) | further results
GFP-Plk1 (from UniProt P53350 1-603) (enzyme) | binds | 
wt-INCENP-EGFP (from UniProt Q9NQS7 1-918) | binds | 
B1 |  | binding [1]: binds
B2 |  | binding (Flag-tagged Aurora-A): binds
B3 | binds | 
